The record followed here is article PMC6514445, “Enterococcal PcfF Is a Ribbon-Helix-Helix Protein That Recruits the Relaxase PcfG Through Binding and Bending of the oriT Sequence” (Frontiers in Microbiology, 2019).

In data set [1] the target is T1, PcfF1-54 (Enterococcus faecalis plasmid pCF10) (UniProt Q5G3N6).
T1 sequence (looked up): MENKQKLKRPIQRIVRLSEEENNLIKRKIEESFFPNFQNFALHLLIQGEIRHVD
As to the kind of experiment: EMSA (DNA bending). As to conditions: smeary shift; EMSA: 30 nM DNA, 10 mM Tris/HCl pH 7.5, 200 mM NaCl (150 mM NaCl with PcfG), 15 min at room temperature; 20% native PAGE in TAE pH 8.0 at 4 C; recombinant protein; residues 1-54; protein details: N-terminal GST, 3C-cleaved (4 extra residues left). (In general: A gel shift assay detects complexes by their altered migration in electrophoresis.)

In a further data set the test system is PcfF + PcfG. Briefly: EMSA. The note with it: no supershift by 300 nM PcfG, PcfF-oriT complex itself forms; EMSA: 30 nM DNA, 10 mM Tris/HCl pH 7.5, 200 mM NaCl (150 mM NaCl with PcfG), 15 min at room temperature; 20% native PAGE in TAE pH 8.0 at 4 C; recombinant protein; label: 5' FITC on sense strand.
For a further data set, the system named is PcfF1-54 + PcfG. As to the kind of experiment: EMSA. The note with it: no supershift by 300 nM PcfG, PcfF1-54-oriT complex itself forms; EMSA: 30 nM DNA, 10 mM Tris/HCl pH 7.5, 200 mM NaCl (150 mM NaCl with PcfG), 15 min at room temperature; 20% native PAGE in TAE pH 8.0 at 4 C; recombinant protein; label: 5' FITC on sense strand.

For some of these results: Negatives hold for the conditions tested. For some of these results: Construct, isoform or probe ends are uncertain for at least one entry. For some of these results: At least one verdict was read from the data and is not stated in words by the source. For some of these results: Tags and fusion partners may be left off the protein sequences shown.

For “GTCTCGAGTTTAAAGATATCCAGCTGCCCGGGAGGCCTTCGCGAAATATTGGTACCCCATGGAATCGAGGGATCCTCTAGTCGCAACATGCTAGCATGTTGCTCCGCTTGCAAAAAGAAA (double strand) [oriT 3' 120 bp]”, in data set [1], the binding result is “binds”. As for “GCGAAATATTGGTACCCCATGGAATCGAGGGATCCTCTAGTCGCAACATGCTAGCATGTTGCTCCGCTTGCAAAAAGAAAAGTCGACACGCGTAGATCTGCTAGCATCGATCCATGGACT (double strand) [oriT middle 120 bp]”, in data set [1], the binding result was “binds”. For “TCGCAACATGCTAGCATGTTGCTCCGCTTGCAAAAAGAAA (double strand) [oriT 40 bp]”, the binding result with PcfF + PcfG and in the data set with PcfF1-54 + PcfG was “no binding” in each case.
